Reference: article PMC7190567
No constants are given. Whether binding was seen depends on the method and setting. In cells and extracts the contact can be indirect. Here binding means that the protein was enriched with, or labelled near, the bait; the list need not be complete.

Sequences of proteins named here, by UniProt entry; tags and fusion partners are left off.
UniProt Q8C115: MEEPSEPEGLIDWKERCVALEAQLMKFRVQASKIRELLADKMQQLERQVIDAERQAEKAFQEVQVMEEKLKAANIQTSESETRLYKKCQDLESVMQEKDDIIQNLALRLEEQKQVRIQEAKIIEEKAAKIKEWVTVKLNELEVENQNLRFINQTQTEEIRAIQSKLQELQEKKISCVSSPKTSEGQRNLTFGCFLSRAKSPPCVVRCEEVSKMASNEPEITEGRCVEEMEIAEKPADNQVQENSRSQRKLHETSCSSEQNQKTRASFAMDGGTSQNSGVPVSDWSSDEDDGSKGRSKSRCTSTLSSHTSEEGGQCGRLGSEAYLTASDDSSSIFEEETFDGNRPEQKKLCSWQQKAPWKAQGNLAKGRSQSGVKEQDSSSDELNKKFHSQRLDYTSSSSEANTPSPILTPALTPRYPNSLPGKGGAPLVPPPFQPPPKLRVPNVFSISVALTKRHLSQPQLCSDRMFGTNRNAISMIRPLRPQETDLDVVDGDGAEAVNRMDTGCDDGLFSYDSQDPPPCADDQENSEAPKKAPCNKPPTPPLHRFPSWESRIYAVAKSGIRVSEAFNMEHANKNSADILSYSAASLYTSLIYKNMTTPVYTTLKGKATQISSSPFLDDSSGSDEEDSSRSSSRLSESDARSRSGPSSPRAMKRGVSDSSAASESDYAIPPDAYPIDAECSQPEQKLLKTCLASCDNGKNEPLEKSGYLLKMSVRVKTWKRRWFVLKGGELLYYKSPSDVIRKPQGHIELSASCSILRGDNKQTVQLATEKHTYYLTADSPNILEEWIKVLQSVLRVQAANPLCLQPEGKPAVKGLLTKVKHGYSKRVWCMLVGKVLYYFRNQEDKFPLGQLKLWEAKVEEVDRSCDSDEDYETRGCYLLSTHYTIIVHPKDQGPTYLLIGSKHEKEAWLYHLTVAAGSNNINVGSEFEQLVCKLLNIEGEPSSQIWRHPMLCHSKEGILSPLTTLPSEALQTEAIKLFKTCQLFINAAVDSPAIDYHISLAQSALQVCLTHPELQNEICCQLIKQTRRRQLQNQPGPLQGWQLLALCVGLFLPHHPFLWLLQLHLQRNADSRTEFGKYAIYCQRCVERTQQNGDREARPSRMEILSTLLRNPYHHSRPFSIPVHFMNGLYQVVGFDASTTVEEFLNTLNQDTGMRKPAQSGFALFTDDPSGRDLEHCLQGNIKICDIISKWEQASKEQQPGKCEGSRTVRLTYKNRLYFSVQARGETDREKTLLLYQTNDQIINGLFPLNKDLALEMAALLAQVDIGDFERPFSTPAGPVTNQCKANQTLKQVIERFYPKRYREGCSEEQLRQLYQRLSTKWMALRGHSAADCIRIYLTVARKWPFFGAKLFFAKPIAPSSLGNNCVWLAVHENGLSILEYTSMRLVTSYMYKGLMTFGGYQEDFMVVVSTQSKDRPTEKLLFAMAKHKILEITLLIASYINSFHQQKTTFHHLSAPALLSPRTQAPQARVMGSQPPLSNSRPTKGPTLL
UniProt G5E829: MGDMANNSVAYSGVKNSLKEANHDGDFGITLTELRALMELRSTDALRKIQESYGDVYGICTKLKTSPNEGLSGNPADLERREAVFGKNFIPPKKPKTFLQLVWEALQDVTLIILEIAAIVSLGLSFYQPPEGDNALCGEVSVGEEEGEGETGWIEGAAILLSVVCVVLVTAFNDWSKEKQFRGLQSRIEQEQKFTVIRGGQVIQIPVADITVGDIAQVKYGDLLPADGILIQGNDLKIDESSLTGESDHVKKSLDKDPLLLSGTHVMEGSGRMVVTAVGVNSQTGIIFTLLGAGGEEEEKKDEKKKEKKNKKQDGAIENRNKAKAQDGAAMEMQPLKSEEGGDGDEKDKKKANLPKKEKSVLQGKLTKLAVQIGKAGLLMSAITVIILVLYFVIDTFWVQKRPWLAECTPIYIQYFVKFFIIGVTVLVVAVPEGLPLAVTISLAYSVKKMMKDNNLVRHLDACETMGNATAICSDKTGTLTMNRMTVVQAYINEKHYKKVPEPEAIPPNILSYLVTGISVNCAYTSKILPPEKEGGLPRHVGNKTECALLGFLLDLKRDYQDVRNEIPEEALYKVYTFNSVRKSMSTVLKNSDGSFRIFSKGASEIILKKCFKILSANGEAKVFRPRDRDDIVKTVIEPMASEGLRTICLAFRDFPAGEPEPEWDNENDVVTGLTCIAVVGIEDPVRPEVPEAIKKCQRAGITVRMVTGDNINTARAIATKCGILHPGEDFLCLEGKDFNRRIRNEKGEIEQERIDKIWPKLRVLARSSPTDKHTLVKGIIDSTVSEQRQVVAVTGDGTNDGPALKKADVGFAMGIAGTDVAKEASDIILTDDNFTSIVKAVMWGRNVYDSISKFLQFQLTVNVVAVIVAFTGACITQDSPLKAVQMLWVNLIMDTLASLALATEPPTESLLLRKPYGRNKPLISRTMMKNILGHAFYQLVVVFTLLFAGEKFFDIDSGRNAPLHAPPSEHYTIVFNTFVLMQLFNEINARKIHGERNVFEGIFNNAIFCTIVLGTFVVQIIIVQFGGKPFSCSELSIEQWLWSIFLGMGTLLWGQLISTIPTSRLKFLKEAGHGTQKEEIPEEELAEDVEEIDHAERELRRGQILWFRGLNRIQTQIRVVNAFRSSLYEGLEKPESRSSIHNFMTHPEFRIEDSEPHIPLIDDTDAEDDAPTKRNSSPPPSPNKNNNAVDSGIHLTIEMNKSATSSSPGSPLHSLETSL
UniProt Q8BYH8: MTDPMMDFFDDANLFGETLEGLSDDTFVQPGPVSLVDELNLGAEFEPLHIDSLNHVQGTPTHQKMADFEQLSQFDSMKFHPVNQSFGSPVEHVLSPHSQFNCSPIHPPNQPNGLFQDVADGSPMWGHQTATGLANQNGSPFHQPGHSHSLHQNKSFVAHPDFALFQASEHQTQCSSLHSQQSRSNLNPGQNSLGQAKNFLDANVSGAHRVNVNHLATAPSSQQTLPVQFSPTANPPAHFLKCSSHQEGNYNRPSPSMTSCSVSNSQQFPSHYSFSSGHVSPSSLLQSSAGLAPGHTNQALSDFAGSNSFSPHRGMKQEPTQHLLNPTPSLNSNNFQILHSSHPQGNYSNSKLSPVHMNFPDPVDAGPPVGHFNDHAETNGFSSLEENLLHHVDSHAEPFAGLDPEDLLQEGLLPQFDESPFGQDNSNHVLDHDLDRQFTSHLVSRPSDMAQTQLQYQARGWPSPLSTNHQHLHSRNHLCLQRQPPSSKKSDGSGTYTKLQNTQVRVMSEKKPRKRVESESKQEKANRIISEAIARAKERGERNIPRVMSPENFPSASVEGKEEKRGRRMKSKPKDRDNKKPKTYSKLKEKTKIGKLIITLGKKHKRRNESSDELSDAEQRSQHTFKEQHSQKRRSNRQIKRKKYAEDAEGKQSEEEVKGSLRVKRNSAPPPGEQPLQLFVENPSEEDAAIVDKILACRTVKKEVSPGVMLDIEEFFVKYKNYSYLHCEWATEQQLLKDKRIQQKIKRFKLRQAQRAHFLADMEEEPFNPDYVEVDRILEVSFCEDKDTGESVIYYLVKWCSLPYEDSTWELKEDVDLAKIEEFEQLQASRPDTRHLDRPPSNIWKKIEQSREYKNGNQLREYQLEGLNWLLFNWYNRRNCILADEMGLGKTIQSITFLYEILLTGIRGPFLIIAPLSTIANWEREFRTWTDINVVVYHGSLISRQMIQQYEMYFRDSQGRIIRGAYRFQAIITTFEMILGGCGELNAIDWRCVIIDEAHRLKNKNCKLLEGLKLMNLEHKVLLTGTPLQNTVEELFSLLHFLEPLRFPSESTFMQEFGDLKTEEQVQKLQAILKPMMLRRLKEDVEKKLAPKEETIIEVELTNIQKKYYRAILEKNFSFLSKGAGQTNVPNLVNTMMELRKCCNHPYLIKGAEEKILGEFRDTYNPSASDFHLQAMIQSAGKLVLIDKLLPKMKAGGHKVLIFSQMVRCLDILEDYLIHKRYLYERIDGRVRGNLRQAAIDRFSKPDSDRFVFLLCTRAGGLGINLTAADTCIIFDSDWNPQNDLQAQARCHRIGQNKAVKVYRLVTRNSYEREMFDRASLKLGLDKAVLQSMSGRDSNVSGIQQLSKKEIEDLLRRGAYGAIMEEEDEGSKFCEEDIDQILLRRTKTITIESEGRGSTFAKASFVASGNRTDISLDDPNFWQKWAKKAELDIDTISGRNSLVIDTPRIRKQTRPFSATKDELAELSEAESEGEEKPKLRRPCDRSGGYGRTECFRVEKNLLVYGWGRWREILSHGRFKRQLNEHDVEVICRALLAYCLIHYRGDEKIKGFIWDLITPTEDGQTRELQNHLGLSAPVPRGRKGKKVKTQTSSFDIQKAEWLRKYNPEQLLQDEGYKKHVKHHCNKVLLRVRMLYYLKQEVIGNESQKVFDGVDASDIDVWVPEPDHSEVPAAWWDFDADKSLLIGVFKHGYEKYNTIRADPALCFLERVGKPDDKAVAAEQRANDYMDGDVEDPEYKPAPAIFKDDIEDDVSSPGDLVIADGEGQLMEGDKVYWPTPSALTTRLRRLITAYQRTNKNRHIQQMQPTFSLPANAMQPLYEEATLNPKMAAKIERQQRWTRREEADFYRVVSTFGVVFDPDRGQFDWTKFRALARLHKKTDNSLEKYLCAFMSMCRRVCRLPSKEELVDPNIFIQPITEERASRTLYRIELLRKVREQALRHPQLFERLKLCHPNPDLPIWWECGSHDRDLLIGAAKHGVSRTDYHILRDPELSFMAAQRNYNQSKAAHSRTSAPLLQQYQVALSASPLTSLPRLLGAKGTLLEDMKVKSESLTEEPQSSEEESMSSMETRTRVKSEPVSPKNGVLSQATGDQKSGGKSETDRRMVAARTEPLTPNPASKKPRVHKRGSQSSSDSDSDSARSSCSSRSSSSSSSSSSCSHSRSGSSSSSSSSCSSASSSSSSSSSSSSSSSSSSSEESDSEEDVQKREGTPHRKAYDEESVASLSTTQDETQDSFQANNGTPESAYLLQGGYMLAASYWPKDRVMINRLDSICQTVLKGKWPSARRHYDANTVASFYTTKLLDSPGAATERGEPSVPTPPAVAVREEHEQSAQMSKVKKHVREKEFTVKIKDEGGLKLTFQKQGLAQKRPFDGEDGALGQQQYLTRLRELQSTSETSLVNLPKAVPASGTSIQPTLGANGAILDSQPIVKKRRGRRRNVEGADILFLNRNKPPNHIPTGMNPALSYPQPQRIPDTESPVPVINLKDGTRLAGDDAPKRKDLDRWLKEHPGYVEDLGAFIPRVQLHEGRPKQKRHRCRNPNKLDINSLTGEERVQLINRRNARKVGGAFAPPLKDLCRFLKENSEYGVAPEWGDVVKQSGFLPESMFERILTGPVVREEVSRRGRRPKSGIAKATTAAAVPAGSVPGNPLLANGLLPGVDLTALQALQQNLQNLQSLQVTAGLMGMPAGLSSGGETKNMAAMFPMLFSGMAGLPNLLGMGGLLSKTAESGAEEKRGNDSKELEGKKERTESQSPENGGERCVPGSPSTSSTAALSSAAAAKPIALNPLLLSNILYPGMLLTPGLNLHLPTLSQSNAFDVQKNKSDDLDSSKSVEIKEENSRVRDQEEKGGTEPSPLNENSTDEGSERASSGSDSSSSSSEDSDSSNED
UniProt Q99LI8: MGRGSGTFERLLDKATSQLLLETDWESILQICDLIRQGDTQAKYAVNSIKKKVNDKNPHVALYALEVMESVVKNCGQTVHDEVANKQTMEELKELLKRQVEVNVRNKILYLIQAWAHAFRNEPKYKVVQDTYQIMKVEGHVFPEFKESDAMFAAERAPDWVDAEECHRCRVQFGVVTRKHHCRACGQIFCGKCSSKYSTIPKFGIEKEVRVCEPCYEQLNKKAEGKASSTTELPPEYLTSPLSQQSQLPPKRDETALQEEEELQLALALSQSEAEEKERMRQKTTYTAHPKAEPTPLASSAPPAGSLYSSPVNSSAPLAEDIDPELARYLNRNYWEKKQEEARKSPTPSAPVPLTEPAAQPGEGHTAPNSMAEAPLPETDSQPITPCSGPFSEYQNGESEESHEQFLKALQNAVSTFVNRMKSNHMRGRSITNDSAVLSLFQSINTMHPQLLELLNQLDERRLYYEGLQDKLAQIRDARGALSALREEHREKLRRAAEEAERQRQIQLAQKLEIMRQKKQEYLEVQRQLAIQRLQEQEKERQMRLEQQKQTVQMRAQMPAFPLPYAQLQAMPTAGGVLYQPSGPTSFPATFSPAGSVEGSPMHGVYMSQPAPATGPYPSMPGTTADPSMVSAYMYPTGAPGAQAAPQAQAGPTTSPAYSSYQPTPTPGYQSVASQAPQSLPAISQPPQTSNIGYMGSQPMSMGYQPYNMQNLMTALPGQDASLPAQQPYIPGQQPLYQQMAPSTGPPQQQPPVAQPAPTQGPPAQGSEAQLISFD

T1: Caveolin-1 (wild type) (dog) (UniProt P33724)
T1 sequence: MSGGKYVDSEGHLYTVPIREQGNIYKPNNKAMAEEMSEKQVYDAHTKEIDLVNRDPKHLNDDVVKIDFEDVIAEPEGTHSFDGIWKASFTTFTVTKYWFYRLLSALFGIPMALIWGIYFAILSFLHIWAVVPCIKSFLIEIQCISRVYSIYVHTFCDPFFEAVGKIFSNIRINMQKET

B1: Protein Jumonji (protein, UniProt Q62315 1-1234)
chain: MSKERPKRNIIQKKYDDSDGIPWSEERVVRKVLYLSLKEFKNAQKRQHGEGLAGSLKAVNGLLGNAQAKALGPASEQSENEKDDASQVSSTSNDVSSSDFEEGPSRKRPRLQAQRKFAQSQPNSPSTTPVKIVEPLLPPPATQISDLSKRKPKTEDFLTFLCLRGSPALPNSMVYFGSSQDEEDVEEEDDETEDVKATTNNASSSCQSTPRKGKTHKHVHNGHVFNGSSRSAREKEPAHKHRSKEATPGKEKHSEPRADSRREQASGAQPTAASAAASSAKGLAANHQPPPSHRSAQDLRKQVSKVNGVTRMSSLGAGTNSAKKIREVRPSPSKTVKYTATVTKGTVTYTKAKRELVKETKPNHHKPSSAVNHTISGKTESSNAKTRKQVLSLGGASKSTGPAASGLKASSRLNPKSCTKEVGGRQLREGLRNSKRRLEEAQQVDKPQSPPKKMKGVAGNAEAPGKKASAASGEKSLLNGHVKKEVPERSLERNRPKRAAAGKNMLGKQAHGKTEGTPCENRSTSQPESSHKPHDPQGKPEKGSGKSGWAAMDEIPVLRPSAKEFHDPLIYIESVRAQVEKYGMCRVIPPPDWRPECKLNDEMRFVTQIQHIHKLGRRWGPNVQRLACIKKHLRSQGITMDELPLIGGCELDLACFFRLINEMGGMQQVTDLKKWNKLADMLRIPKTAQDRLAKLQEAYCQYLLSYDSLSPEEHRRLEKEVLMEKEILEKRKGPLEGHTESDHHKFHSLPRFEPKNGLVHGVTPRNGFRSKLKEVGRAPLKTGRRRLFAQEKEVVKEEEEDKGVLNDFHKCIYKGRSVSLTTFYRTARNIMNMCFSKEPAPAEIEQEYWRLVEEKDCHVAVHCGKVDTNTHGSGFPVGKSEPFSRHGWNLTVLPNNTGSILRHLGAVPGVTIPWLNIGMVFSTSCWSRDQNHLPYIDYLHTGADCIWYCIPAEEENKLEDVVHTLLQGNGTPGLQMLESNVMISPEVLCKKGIKVHRTVQQSGQFVVCFPGSFVSKVCCGYNVSETVHFATTQWTSMGFETAKEMKRRHIAKPFSMEKLLYQIAQAEAKKENGPTLSTISALLDELRDTELRQRRLLFEAGLHSSARYGSHDGNSTVADGKKKPRKWLQLETSERRCQICQHLCYLSMVVQENENVVFCLECALRHVEKQKSCRGLKLMYRYDEEQIISLVNQICGKVSGKHGGIENCLNKPTPKRGPRKRATVDVPPSRLPSS
B2: DNA repair and recombination protein RAD54B (protein, UniProt Q6PFE3 1-886)
chain: MRRSAAPSQVQGKSFKKTRFIPPGRSNADVSKEITKMSPDPKLFQGAEQSQNDPGVCSSNPCPSEGIPREVGDGTRVDPLPPVHSASKEITESKAQEEEASSLLKYFSVVWCKASKKKHKKWEGDAILIVRGRSFTLKDLEGKDIGRGIGYKFKDLENVEEGQTLIIGGKEIEILGTISSDDFNSGKCFQHGSGSPAVPSSQAARKCFSNPFKSVCQSTQAQGKRWNDCRPRHNPCTPNALVMPRPDENHQRMFNRHCSPIVDVVIDPHLVHHLRPHQKDGIIFLYECVMGMRAVGKCGAILADEMGLGKTLQCISLIWTLQCQGPYGGKPVIKKTLIVTPGSLVNNWRKEFQKWLGSERIKIFTVDQDHKVEEFINSTFHSVLIISYEMLLRSLDQIKTIPFGLLICDEGHRLKNSSIKTTTALSSLSCEKTVILTGTPVQNDLQEFFALVDFVNPGILGSLSSYRKIYEEPIIISREPSSSKEERELGERRATELTRLTGRFILRRTQEVINKYLPPKIENVVFCRPGALQIELYRKLLRSQSVRFCLQGLLENSAHLICIGALKKLCNHPCLLFSSVKGKEFSSSCEENEERNLCQGLLSVFPAGYNPLQFSEEESGKLQVLVKLLAVIHELRPTEKVILVSNYRQTLNVLEEVCKRHGYACARLDGQTPVSQRQHIVDSFNSKYSTDFIFLLSSKAGGVGLNLIGGSHLILYDIDWNPATDIQAMSRVWRDGQKHPVHIYRLLTTGTIEEKIYQRQISKQGLSGAVVDLTRSSEHIQFSVEELKNLFTLHESSHCVTHDLLDCECTGEKGHTEDASEGPVASRQCQFGPQKSDALRPLSMSQLKQWKHFSGDHLNLPDPFLERIRENVSFFFQNITNQAPAV
B3: DnaJ homolog subfamily C member 7 (protein, UniProt Q9QYI3 1-494)
chain: MAATAECDVVMAATEPELLEDEDAKREAESFKEQGNAYYAKKDYNEAYNYYTKAIDMCPNNASYYGNRAATLMMLGRFREALGDAQQSVRLDDSFVRGHLREGKCHLSLGNAMAACRSFQRALELDHKNAQAQQEFKNANAVMEYEKIAEVDFEKRDFRKVVFCMDRALEFAPACHRFKILKAECLAMLGRYPEAQFVASDILRMDSTNADALYVRGLCLYYEDCIEKAVQFFVQALRMAPDHEKACVACRNAKALKAKKEDGNKAFKEGNYKLAYELYTEALGIDPNNIKTNAKLYCNRGTVNSKLRQLEDAIEDCTNAVKLDDTYIKAYLRRAQCYMDTEQFEEAVRDYEKVYQTEKTKEHKQLLKNAQLELKKSKRKDYYKILGVDKNASEDEIKKAYRKRALMHHPDRHSGASAEVQKEEEKKFKEVGEAFTILSDPKKKTRYDSGQDLDEEGMNMGDFDANNIFKAFFGGPGGFSFEASGPGNFYFQFG
B4: Nucleolar RNA helicase 2 (protein, UniProt Q9JIK5 1-851)
chain: MPGKLRSGAKLGSDGAEESMETLPKPSEKKTRKEKTKSKTEEATEGMEEAVSSKAKKTNKKGPSEDDVDPPKSRKAKKQEEEPQDDTASTSKTSKKKKEPLEKQADSETKEIITEEPSEEEADMPKPKKMKKGKEANGDAGEKSPKLKNGLSQPSEEEADIPKPKKMKKGKEANGDAGEKSPKLKNGLSQPSEEEVDIPKPKKMKKGKEASGDAGEKSPRLKDGLSQPSEPKSNSSDAPGEESSSETEKEIPVEQKEGAFSNFPISEETVKLLKARGVNFLFPIQAKTFHHVYSGKDLIAQARTGTGKTFSFAIPLIEKLQGGLQERKRGRAPQVLVLAPTRELANQVSKDFSDITKKLSVACFYGGTPYGGQIERMRSGIDILVGTPGRIKDHLQNGKLDLTKLKHVVLDEVDQMLDMGFADQVEEILCVAYKKDSEDNPQTLLFSATCPHWVFNVAKKYMKSTYEQVDLIGKKTQKAAITVEHLAIKCHWTERAAVIGDVIRVYSGHQGRTIIFCETKKDAQELSQNTCIKQDAQSLHGDIPQKQREITLKGFRNGNFGVLVATNVAARGLDIPEVDLVVQSCPPKDVESYIHRSGRTGRAGRTGVCICFYQNKEEYQLAQVEQKAGIKFKRIGVPSATEIIKASSKDAIRLLDSVPPTAISHFKQSAEKLIEEKGAVEALAAALAHISGATSVDQRSLINSQAGFVTMILRCSIEMPNISYAWKELKEQLGESIDAKVKGMVFLKGKLGVCFDVRTEAVTEIQEKWHDSRRWQLTVATEQPELEGPPDGYRGRMGQRDGSRGAFRGQRGGSRNFRGQGQRGGSRNFRGQRPGGGNRGQKRSFSKAFGQ
B5: BADHD1, Bromo adjacent homology domain-containing 1 protein (protein, UniProt Q497V6 1-772)
chain: MTHTRRKSLPMLSSGPTGRGEPLQMEDSNMEQGTEDVEPGMPESPGHLTGRRKNYPLRKRSLVPEKPKACKVLLTRLENVAGPRSADEADELPPDLPKPPSPTSSSEDAGLVQPRKRRLASLNAEALNNLLLEREETSSLAGARRSRGGDPHRSRDRATGSWSFSKKRPRLGDLGEGSRDLSPELAPDEGARRDGDPAPKRLASLNAAAFLKLSQERELPLRPSRAQAEADGRSTEPLAPRILRPKVNGKNCPKARQGAGSGEATGPPNWQEQPDERWPSAPPHGPPTQPSHQAPGKALENPLRPNLPLLMGGQAALKPEPGRPGEESPAPKQELHQPSFPAPQLSPLPMPGNPADYSGPCGGPELTALGSFYLYCGQDGLQCGAYSPCPMLPEGKLSPVAAPNEGLLMAPSSVPSGVPFQHPPWSAPRYCSSEDTGANGYSICGVLPLSLTHIGTTCGGCPYKMPFTAEGCRSLGQLEFPLPEAGHPASPAHPLLGCPVPSVPPAAEPIPHLQTPISEPQTVARACPQSAKPPSGSKSGLRTGSSCRHTVRSKAARRPSHPKQPRAQRPRPRRRRRRRTNGWVPVGAACEKAVYVLDEPEPAIRKSYQAVERHGETIRVRDTVLLKSGPRKTSTPYVAKISALWENPESGELMMSLLWYYRPEHLQGGRSPSMHEPLQNEVFASRHQDQNSVACIEEKCYVLTFAEYCRFCAMAKRRGEGLPSRKTALVPPSADYSTPPHRTVPEDTDPELVFLCRHVYDFRHGRILKNPQ

Key:
[1] = biological target: T1, Caveolin-1 (wild type) (dog); assay: affinity purification with mass spectrometry; CAV1 immunoprecipitated with polyclonal anti-CAV1 on Dynabeads from B16F10(CAV1) cells (no E-cadherin); trypsin digest, nano-ESI-MS/MS on an LTQ ion trap, Mascot; only proteins unique to this sample listed
[2] = biological target: T1, Caveolin-1 (wild type) (dog); assay: affinity purification with mass spectrometry; CAV1 immunoprecipitated with polyclonal anti-CAV1 on Dynabeads from B16F10(CAV1-E-cadherin) cells; trypsin digest, nano-ESI-MS/MS on an LTQ ion trap, Mascot; only proteins unique to this sample listed

Molecule	binding [1]	binding [2]
Pleckstrin homology domain-containing family H member 2 (from UniProt Q8C115 1-1491)	binds	–
E3 ubiquitin -protein ligase MYCBP2 (from UniProt Q7TPH6 1-4749)	binds	–
Protein Atp2b1 (from UniProt G5E829 1-1220)	binds	–
Voltage-dependent P/Q-type calcium channel subunit alpha-1 (from UniProt P97445 1-2368)	binds	–
Low-density lipoprotein receptor-related protein 2 (from UniProt A2ARV4 26-4660)	binds	–
Oog4 protein (mouse (endogenous in B16F10))	binds	–
Protein 4732456N10Rik (from UniProt E9Q1Z0)	binds	–
Chaperone activityof bc1 complex-like, mitochondrial (from UniProt Q60936 160-645)	binds	–
Chromodomain-helicase-DNA-binding protein 9 (from UniProt Q8BYH8 1-2885)	binds	–
Zinc finger CCCH domain-containing protein 6 (from UniProt Q8BYK8 1-1177)	binds	–
Hepatocyte growth factor-regulated tyrosine kinase substrate (from UniProt Q99LI8 1-775)	binds	–
G-protein coupled receptor 75 (from UniProt Q6X632 1-540)	binds	–
Histone acetyltransferase KAT6A (from UniProt Q8BZ21 1-2003)	binds	–
Nuclear envelope spectrin repeat protein 2 (from UniProt Q6ZWQ0 1-6874)	binds	–
B1	–	binds
B2	–	binds
B3	–	binds
B4	–	binds
B5	–	binds
